From patent US20210284952A1, “METHODS OF APPLYING ACETATE TOXICITY AND INDUCING ACETATE UPTAKE IN MICROALGAE CULTURES” (HELIAE DEVELOPMENT LLC, priority 2016, published 2021)

Key:
Chlorella sp. HS26 = settings: stabilized value after pH lowered to 6.5
[1] = tested on: Aurantiochytrium sp. HS399

## CC(=O)O [Acetic Acid, acetic acid]
Chlorella sp. HS26
  internal acetate concentration: above 1500 ppm
[1]; pH 4.5, averaged over days 1-6
  Average residual Acetate: 2.0 g/L
[1]; pH 5.0, averaged over days 1-6
  Average residual Acetate: 1.5 g/L
[1]; pH 5.5, averaged over days 1-6
  Average residual Acetate: 1.25 g/L
[1]; pH 7.0, averaged over days 1-6
  Average residual Acetate: 1.0 g/L

Read-outs that look alike come from different tables or passages of the source.
